In article PMC7819943, “Rice protein-binding microarrays: a tool to detect cis-acting elements near promoter regions in rice” one finds binding signal data, which are given here for 42 sequences.

Sequences of proteins named here, by UniProt entry; tags and fusion partners are left off.
UniProt Q0JBA9, entry or part of it: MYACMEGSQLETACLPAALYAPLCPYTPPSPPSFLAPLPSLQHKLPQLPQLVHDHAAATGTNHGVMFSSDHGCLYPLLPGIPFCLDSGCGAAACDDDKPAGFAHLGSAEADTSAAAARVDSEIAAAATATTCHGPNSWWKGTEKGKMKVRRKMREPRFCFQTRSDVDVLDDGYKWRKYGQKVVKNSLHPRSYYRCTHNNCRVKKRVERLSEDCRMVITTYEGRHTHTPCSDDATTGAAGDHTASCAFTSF

The list shows a part of the results.

The target of this test is OsWRKY34 (Oryza sativa, UniProt Q0JBA9 1-250). In words: protein-binding microarray (RPBM); PBS, 2% BSA, 51.3 ng/ul salmon testes DNA, 50 uM zinc acetate, 200 nM TF, 25 C, 1 h; high values mean tight binding. To be noted: protein: recombinant; tags: N-terminal polyhistidine and DsRed monomer fusion (pET32a); label: CyDye5-dUTP incorporated in the synthesized complementary strand; 3' TTTTT single-stranded linker to array surface; dsDNA, one strand shown. The gist of the method:
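An Axon 4000B scanner gave the binding signal as per-feature fluorescence intensity in arbitrary units. This followed washing of a custom Agilent array that had been incubated for 1 h at 25 °C with 200 nM protein in PBS, 2% BSA, salmon testes DNA and 50 µM zinc acetate. The proteins were transcription factors fused at the N-terminus to polyhistidine and DsRed, expressed in E. coli BL21-CodonPlus and purified on Ni–NTA.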
On to “GAGGTGGTGTCGGGGAGGTTGGGAGGTGCAGGATGCATGCCGGAGTCACCTAGTGCAG”, for which the binding signal was 13700 fluorescence intensity (a.u.).

With “CGCCAACCTGTCCTGTTCTGCCGTCCTGCTCCGCTGGCCCCGGAGTCACCTAGTGCAG”, the binding signal is 11800 fluorescence intensity (a.u.).

Turning to “CAATCTTGACGGATAGCTCGATCGCGTCGCTTGTTTACTTCGGAGTCACCTAGTGCAG”, the binding signal was 11700 fluorescence intensity (a.u.).

For the sequence “GCATACACATCAGCCACCAGATTTGTTCCATCTCTCTTCCCGGAGTCACCTAGTGCAG”, the binding signal is 8630 fluorescence intensity (a.u.).

For the sequence “CACTTGACTGGCTGATGCTATTGGCCTCTGTTATATTTTCCGGAGTCACCTAGTGCAG”, the binding signal is 9300 fluorescence intensity (a.u.).

As to “CCCCTCACTCCTCCGATCCTTTCCCACTGCGCGCCACTCACGGAGTCACCTAGTGCAG”, the binding signal was 10700 fluorescence intensity (a.u.).

Regarding “ATTTTTTTATTCGTGTCCGAAACCCCTTCCGACATCCTGTCGGAGTCACCTAGTGCAG”, the binding signal was 8900 fluorescence intensity (a.u.).

Take “ATATTTGTGTTCATTCATTAGGTCTATTCGTTATTTTTGCCGGAGTCACCTAGTGCAG”: the binding signal is 9640 fluorescence intensity (a.u.).

For the sequence “AGCGAGTATATTCTAGCTAGCTGCAACTCTCTCTCTCTCTCGGAGTCACCTAGTGCAG”, the binding signal was 8490 fluorescence intensity (a.u.).

As for “GGGACTCCTAGGCTTTGTGTCTGTTACTTCTTTTCTACTGCGGAGTCACCTAGTGCAG”, the binding signal is 14200 fluorescence intensity (a.u.).

Take “CAATGCCGTCTCTGCCCCACCGGCATCTTGATCGATCCTGCGGAGTCACCTAGTGCAG”: the binding signal was 9050 fluorescence intensity (a.u.).

Consider “TCGTAGTTGTGTTAGTGGCTAGGGTTTTGGCCTGTGTGTGCGGAGTCACCTAGTGCAG”, for which the binding signal was 8120 fluorescence intensity (a.u.).

On to “TTCTTATAGCCCAAGCCATCCTCATCTCCTTCCTTGCTGCCGGAGTCACCTAGTGCAG”, for which the binding signal was 11700 fluorescence intensity (a.u.).

Consider “TCCCAATTATTGGACCTCGACCGCTCCTAAATCCCCTGCCCGGAGTCACCTAGTGCAG”, for which the binding signal was 8040 fluorescence intensity (a.u.).

Turning to “GGAGTGTTGCTTGGGCTGTCGCGGTCGGGCCGGCCCAGGACGGAGTCACCTAGTGCAG”, the binding signal was 8320 fluorescence intensity (a.u.).

Turning to “TCTTTTCTCTCTCCTTTCCATGGCCGGCTATCACTGTCGTCGGAGTCACCTAGTGCAG”, the binding signal was 8270 fluorescence intensity (a.u.).

In the case of “CACGGCTCCATCTGCTCAAGCACCACCAGCCTCGCCGGCACGGAGTCACCTAGTGCAG”, the binding signal is 9990 fluorescence intensity (a.u.).

Regarding “GATCCCATGCAAAGTCGCTTTTTTTCTCAGCTGAATTGAACGGAGTCACCTAGTGCAG”, the binding signal was 10100 fluorescence intensity (a.u.).

Regarding “GCTAAGCTCCGCCTCGTCTTCCGCCCACGCTGCTCTGCTCCGGAGTCACCTAGTGCAG”, the binding signal is 9150 fluorescence intensity (a.u.).

With “CCGTCCATCTGTTCGCTTTGTCCTCTTGCAATCATTCACTCGGAGTCACCTAGTGCAG”, the binding signal is 14400 fluorescence intensity (a.u.).

As to “GCACCTCAGTCCTGTCCCAACCATCAAATTCGTCTTGATCCGGAGTCACCTAGTGCAG”, the binding signal was 8560 fluorescence intensity (a.u.).

Consider “CTGTTACTTGCATCCGAACAAGCCCATTTATATCTCACGTCGGAGTCACCTAGTGCAG”, for which the binding signal was 11200 fluorescence intensity (a.u.).

As to “GCTTATACTGTTATAACTCTTTTGGAACAGAATTTTCGAACGGAGTCACCTAGTGCAG”, the binding signal is 8660 fluorescence intensity (a.u.).

Regarding “TCTGAATCAATCACACTCCTTGCACAATGCCTTCACTGTCCGGAGTCACCTAGTGCAG”, the binding signal was 9660 fluorescence intensity (a.u.).

As for “CGTATCTTTTCGCCCATCGTCATAACGCGCGGTATACGTACGGAGTCACCTAGTGCAG”, the binding signal was 8400 fluorescence intensity (a.u.).

In the case of “ATGATGTGCTTTCTATCTCTAATCTCCTAGGCTGTGTTTACGGAGTCACCTAGTGCAG”, the binding signal is 11900 fluorescence intensity (a.u.).

Regarding “TCAACATAGATAAGCTCATCTAGTCTGTCAAATTGGCCATCGGAGTCACCTAGTGCAG”, the binding signal is 8060 fluorescence intensity (a.u.).

For the sequence “TGGTGGTGGTGGTGAGGGGTTAGAGGGGCTAGGGTTGCGGCGGAGTCACCTAGTGCAG”, the binding signal was 11400 fluorescence intensity (a.u.).

On to “GGGGTTTCCTCGGGGCTTAGAGGGATGACCGTGGACGACGCGGAGTCACCTAGTGCAG”, for which the binding signal was 15800 fluorescence intensity (a.u.).

In the case of “GTTCAGGTTTTGTTGTTTACCATTTCAGTGAGCTATTAGTCGGAGTCACCTAGTGCAG”, the binding signal was 8100 fluorescence intensity (a.u.).

Take “CGATGAGATCTATAACTTTGTAGTTTATCACTTTTCCATTCGGAGTCACCTAGTGCAG”: the binding signal is 8550 fluorescence intensity (a.u.).

As to “ATGCTACTCTCGCTCTGCTACTCACTCCTGGCGCCGGTGACGGAGTCACCTAGTGCAG”, the binding signal was 9200 fluorescence intensity (a.u.).

Turning to “TACATGTGGTCAGCAATTTTCATGCTCCTTGCCCTTTTCACGGAGTCACCTAGTGCAG”, the binding signal is 13000 fluorescence intensity (a.u.).

For the sequence “TTCTTTGTTCTTTACCTGCTCCGGTGGTGGACCACCACCCCGGAGTCACCTAGTGCAG”, the binding signal is 11000 fluorescence intensity (a.u.).

As to “TCCAACTCACTTATCTCGTTTTCCGCGCACACGTTTTTTACGGAGTCACCTAGTGCAG”, the binding signal is 16500 fluorescence intensity (a.u.).

As to “AGTTGTTGCGGTGTGTTTGCTGTTCTTGGTTGGAGGCATGCGGAGTCACCTAGTGCAG”, the binding signal is 11400 fluorescence intensity (a.u.).

As to “CCAACCCCTCCCACCTCGCCACCTTTTTTCACCTTTTCCCCGGAGTCACCTAGTGCAG”, the binding signal is 8240 fluorescence intensity (a.u.).

For the sequence “CCCTAAACAGGTCAACCTCAGGTGTTGACTAGAGTACTAGCGGAGTCACCTAGTGCAG”, the binding signal is 8290 fluorescence intensity (a.u.).

As to “TGGTTGTGTTTATAATGTACTTCTACTATAGTAATTTTATCGGAGTCACCTAGTGCAG”, the binding signal was 8560 fluorescence intensity (a.u.).

Take “AATTTTCTTCACCTGCTGCAATGCATGGGCATTTTGCTAGCGGAGTCACCTAGTGCAG”: the binding signal is 8150 fluorescence intensity (a.u.).

As for “CTCCAACCGCATCAACACTCGTCGCGCGAAGCGTACCATCCGGAGTCACCTAGTGCAG”, the binding signal was 8440 fluorescence intensity (a.u.).

On to “GTCGTCTCCCACACTCTCCGCTTCCGTTCCGTCTCGTTGTCGGAGTCACCTAGTGCAG”, for which the binding signal is 11100 fluorescence intensity (a.u.).
